The list does not hold the whole screen: it gathers tests that were run many times, whatever their T/C, doses with no T/C, and many T/C values between a quarter and a half above the control. Other doses and runs of a compound stand elsewhere. T/C gives the treated animals as a percentage of the vehicle group. Some doses have a count of surviving animals in place of a T/C: the source holds a T/C of zero for them, seemingly a mark for toxic or unscored doses. Some survivor counts are full or nearly so, which does not show that the dose was tolerated: survival well below the control is almost never listed, so the zero probably covers shortened survival too. Survivors were counted at the toxicity check, usually on the fifth day, unless a day is given; later deaths do not show. Schedules are NCI's codes, read here as Q, the interval in days (D) or hours (H), X, the number of doses. For survival time, this PubChem deposit counts one and a half times the control or more as active, and values a quarter to a half above the control carry no call in these data; other NCI protocols may use other cut-offs. Some entries hold several experiments; their values stand side by side, smallest first.

This assay has as its system BDF1 mice, P388 leukemia ip, median survival T/C. The assay is described as follows: NCI In Vivo Anticancer Drug Screen. Data for tumor model P388 Leukemia (intraperitoneal) in B6D2F1 (BDF1) mice. To be noted: T/C endpoint: median survival time, higher T/C = longer survival. In a few lines: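 In tumour-bearing mice, survival after compound treatment is set against the vehicle group and given as a quotient.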

Where [1] appears, read: dose: 25.0 mg/kg/injection, schedule: Q01DX009 (ip), vehicle: saline with Tween-80.
Setting [2] is: dose: 50.0 mg/kg/injection, schedule: Q01DX009 (ip), vehicle: saline with Tween-80.
The mark [3] stands for this setting: dose: 100.0 mg/kg/injection, schedule: Q01DX009 (ip), vehicle: saline with Tween-80.
Setting [4] is: dose: 50.0 mg/kg/injection, schedule: Q04DX003 (ip), vehicle: saline with Tween-80.

Take `O=C(CNC(=O)c1ccc(C(=O)NCC(=O)Nc2ccc(C3=NCCCN3)cc2)cc1)Nc1ccc(C2=NCCCN2)cc1`: the T/C by setting is: (dose: 25.0 mg/kg/injection, schedule: Q04DX003 (ip), vehicle: saline) 145 % of control; (dose: 50.0 mg/kg/injection, schedule: Q04DX003 (ip), vehicle: saline) 145 % of control; (dose: 66.0 mg/kg/injection, schedule: Q04DX003 (ip), vehicle: saline) 145 % of control; (dose: 100.0 mg/kg/injection, schedule: Q01DX001 (ip), vehicle: Klucel (hydroxypropylcellulose) (HPC)) 127 % of control; (dose: 200.0 mg/kg/injection, schedule: Q01DX001 (ip), vehicle: Klucel (hydroxypropylcellulose) (HPC)) 126 and 140 % of control; (dose: 300.0 mg/kg/injection, schedule: Q01DX001 (ip), vehicle: Klucel (hydroxypropylcellulose) (HPC)) 138 % of control.
As for `C=CC(CN1CC1)OC(C)=O` (stereo unspecified), the T/C is, setting by setting: (dose: 4.0 mg/kg/injection, schedule: Q01DX010 (ip), vehicle: saline) 125 % of control; (dose: 8.0 mg/kg/injection, schedule: Q01DX010 (ip), vehicle: saline) 129 % of control. Moreover, the survivor count (dose: 16.0 mg/kg/injection, schedule: Q01DX010 (ip), vehicle: saline) is listed as 4 of 6 and the survivor count (dose: 32.0 mg/kg/injection, schedule: Q01DX010 (ip), vehicle: saline) is recorded as 3 of 6.
For the molecule `CCCCCCCCCCCCCCCC(=O)N(C/C=C/CN(CCCN(C)C)C(=O)CCCCCCCCCCCCCCC)CCCN(C)C`, the survivor count under setting [1] is recorded as 5 of 6, the survivor count under setting [2] was 3 of 6 and the survivor count under setting [3] is recorded as 0 of 6.
Regarding `CC(O)C(O)C(O)C(O)/C=N/O` (stereo unspecified), the survivor count (dose: 100.0 mg/kg/injection, schedule: Q04DX003 (ip), vehicle: Klucel (hydroxypropylcellulose) (HPC)) is recorded as 6 of 6.
For the molecule `OC(CC1CCCCN1)c1cc(C(F)(F)F)nc2c(C(F)(F)F)cccc12` (stereo unspecified), the survivor count is listed as 3 of 6 under setting [3] and 0 of 6 (dose: 200.0 mg/kg/injection, schedule: Q01DX009 (ip), vehicle: saline with Tween-80).
In the case of `O=C(O)c1ccc(N=NSc2ncnc3nc[nH]c23)cc1O`, the T/C by setting is: (dose: 2.0 mg/kg/injection, schedule: Q01DX009 (ip), vehicle: saline with Tween-80) 130 and 146 % of control; (dose: 4.0 mg/kg/injection, schedule: Q01DX009 (ip), vehicle: saline with Tween-80) 126 % of control; (dose: 6.0 mg/kg/injection, schedule: Q01DX009 (ip), vehicle: saline with Tween-80) 138 % of control; (dose: 22.0 mg/kg/injection, schedule: Q04DX003 (ip), vehicle: saline with Tween-80) 130 % of control; under setting [4], 131 % of control; (dose: 100.0 mg/kg/injection, schedule: Q04DX003 (ip), vehicle: saline with Tween-80) 138 % of control. The survivor count is 6 of 6 under setting [1], 6 of 6 under setting [2], 6 of 6 under setting [4] and 6 of 6 under setting [3].

The values above are taken from PubChem BioAssay AID328 (DTP/NCI, 2004).
